# Patent US20090156477A1, “Compositions and Methods for Regulating Inflammatory Responses” (Massachusetts Institute of Technology, priority 2005, published 2009)
# At least one compound was matched to its structure with a doubt left.
# Columns and labels:
# Caco-2 cells = experiment: Transepithelial resistance (TER) of Caco-2 monolayers; format: cell-based, human
# Protocol: (§1) Caco-2 cells were grown close to confluence, and T84 cells were grown to confluence. The apical chambers of transwell plates with 6.5 mm diameter and 3 μm pore size filters were pretreated with 50 μl of 45 μg/ml collagen IV in 60% ethanol 24 hours prior to plating and incubated overnight at room temperature. After reaching confluence, cells were washed with 20 ml PBS and treated with 3.5 ml trypsin-EDTA per 175 cm^2 flask for 20-60 min at 37° C. until cells detached. Cells were resuspended in 16.5 ml media appropriate to the cell type. Each apical chamber was supplemented with 82 μl cell solution. The basolateral chamber was filled with 1 ml propagation media. Filters were fed with new media every two days over the course of experiments.
# (§2) Caco-2 and T84 cells were allowed to grow on transwells to form monolayers. Monolayer formation was examined every other day by light microscopy as well as by transepithelial resistance (TER) measurements using an EVOM ohmmeter (World Precision Instruments, Sarasota, Fla.). After monolayer formation, cells were treated with 100 ng/ml FGF1, 100 ng/ml FGF2, 100 ng/ml FGF7 or an equivalent volume (10 μl) of PBS. TER measurements were made either after 72 hours or at each of the 30 minutes, 1 hour, 2 hours, 4 hours, 9 hours, 24 hours and 48 hours timepoints. […]
# T84 cells = experiment: Transepithelial resistance (TER) of T84 monolayers; format: cell-based, human; conditions: agent given before or with 100 ng/ml FGFs (TM 200 μM, sodium chlorate 50 mM, LY294002 50 μM, antibodies 1:100)
# Protocol: as §1, §2
structure (smiles),measurement,setting,value
"O=c1cc(N2CCOCC2)oc2c(-c3ccccc3)cccc12 [LY294002, reference compound]",effect of added agent on FGF-induced reduction in TER,"Caco-2 cells; Caco-2 cells, agent given before or with 100 ng/ml FGFs (TM 200 μM, sodium chlorate 50 mM, LY294002 50 μM, PMA 100 ng/ml, antibodies 1:100)",eliminated the ability of FGF2 and FGF7 to reduce TER
same,effect of added agent on FGF-induced reduction in TER,"Caco-2 cells; cell line not stated (Caco-2 and T84 cells studied), PD98059 20 μM, SB203580 1 μM, LY294002 50 μM, antibodies 1:100",eliminated the ability of FGF1 to reduce TER
same,effect of added agent on FGF-induced reduction in TER,T84 cells,eliminated the ability of FGF2 and FGF7 to reduce TER
